Results are given in words; binding and its absence hold for the method and conditions named. In cells and extracts the contact can be indirect. Some results given as binding are weak or reduced against the parent protein; the word gives no strength.

The chains behind the UniProt entries cited, without tags or fusion partners.
UniProt Q3TKT4: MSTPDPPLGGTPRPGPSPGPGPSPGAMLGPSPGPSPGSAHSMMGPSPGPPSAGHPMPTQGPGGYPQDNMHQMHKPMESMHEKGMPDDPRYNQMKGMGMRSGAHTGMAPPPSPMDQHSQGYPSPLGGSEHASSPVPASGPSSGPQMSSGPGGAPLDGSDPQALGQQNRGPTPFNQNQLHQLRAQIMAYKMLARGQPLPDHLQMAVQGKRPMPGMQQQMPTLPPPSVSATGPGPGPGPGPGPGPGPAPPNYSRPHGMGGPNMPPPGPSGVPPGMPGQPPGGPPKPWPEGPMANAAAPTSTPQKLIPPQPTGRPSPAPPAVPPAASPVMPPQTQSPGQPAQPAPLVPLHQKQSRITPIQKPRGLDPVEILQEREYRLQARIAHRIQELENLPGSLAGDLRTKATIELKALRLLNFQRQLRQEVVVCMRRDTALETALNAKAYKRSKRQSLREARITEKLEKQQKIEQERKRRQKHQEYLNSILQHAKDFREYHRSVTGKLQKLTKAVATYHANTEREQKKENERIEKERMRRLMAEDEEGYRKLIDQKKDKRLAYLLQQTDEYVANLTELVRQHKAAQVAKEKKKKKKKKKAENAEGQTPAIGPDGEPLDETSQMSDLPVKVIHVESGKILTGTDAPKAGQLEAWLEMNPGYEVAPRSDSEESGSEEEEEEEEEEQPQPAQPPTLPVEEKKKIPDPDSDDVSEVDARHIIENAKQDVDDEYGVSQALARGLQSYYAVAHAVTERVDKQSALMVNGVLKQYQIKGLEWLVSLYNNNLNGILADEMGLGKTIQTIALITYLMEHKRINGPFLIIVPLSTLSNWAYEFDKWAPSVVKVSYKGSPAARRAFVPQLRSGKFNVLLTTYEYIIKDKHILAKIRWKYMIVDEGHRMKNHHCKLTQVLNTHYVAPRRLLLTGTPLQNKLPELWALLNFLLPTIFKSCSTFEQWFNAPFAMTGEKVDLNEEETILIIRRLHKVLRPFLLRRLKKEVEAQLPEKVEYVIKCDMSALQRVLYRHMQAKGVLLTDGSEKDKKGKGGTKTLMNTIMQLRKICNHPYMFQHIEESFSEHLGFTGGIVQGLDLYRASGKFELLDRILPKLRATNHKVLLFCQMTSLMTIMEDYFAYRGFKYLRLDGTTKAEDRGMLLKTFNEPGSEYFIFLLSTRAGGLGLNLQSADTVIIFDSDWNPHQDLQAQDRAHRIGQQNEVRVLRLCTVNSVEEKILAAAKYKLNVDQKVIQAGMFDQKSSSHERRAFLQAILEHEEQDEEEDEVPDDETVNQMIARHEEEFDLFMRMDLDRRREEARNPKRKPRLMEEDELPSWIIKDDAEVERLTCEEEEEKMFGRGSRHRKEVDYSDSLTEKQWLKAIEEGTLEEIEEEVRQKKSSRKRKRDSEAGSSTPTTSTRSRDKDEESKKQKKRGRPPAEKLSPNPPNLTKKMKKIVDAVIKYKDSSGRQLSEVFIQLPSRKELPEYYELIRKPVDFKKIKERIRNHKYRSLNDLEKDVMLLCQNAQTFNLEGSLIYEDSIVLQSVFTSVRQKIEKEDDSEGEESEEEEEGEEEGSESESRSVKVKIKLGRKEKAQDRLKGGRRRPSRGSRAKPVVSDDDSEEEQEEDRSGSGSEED
UniProt Q6PDQ2: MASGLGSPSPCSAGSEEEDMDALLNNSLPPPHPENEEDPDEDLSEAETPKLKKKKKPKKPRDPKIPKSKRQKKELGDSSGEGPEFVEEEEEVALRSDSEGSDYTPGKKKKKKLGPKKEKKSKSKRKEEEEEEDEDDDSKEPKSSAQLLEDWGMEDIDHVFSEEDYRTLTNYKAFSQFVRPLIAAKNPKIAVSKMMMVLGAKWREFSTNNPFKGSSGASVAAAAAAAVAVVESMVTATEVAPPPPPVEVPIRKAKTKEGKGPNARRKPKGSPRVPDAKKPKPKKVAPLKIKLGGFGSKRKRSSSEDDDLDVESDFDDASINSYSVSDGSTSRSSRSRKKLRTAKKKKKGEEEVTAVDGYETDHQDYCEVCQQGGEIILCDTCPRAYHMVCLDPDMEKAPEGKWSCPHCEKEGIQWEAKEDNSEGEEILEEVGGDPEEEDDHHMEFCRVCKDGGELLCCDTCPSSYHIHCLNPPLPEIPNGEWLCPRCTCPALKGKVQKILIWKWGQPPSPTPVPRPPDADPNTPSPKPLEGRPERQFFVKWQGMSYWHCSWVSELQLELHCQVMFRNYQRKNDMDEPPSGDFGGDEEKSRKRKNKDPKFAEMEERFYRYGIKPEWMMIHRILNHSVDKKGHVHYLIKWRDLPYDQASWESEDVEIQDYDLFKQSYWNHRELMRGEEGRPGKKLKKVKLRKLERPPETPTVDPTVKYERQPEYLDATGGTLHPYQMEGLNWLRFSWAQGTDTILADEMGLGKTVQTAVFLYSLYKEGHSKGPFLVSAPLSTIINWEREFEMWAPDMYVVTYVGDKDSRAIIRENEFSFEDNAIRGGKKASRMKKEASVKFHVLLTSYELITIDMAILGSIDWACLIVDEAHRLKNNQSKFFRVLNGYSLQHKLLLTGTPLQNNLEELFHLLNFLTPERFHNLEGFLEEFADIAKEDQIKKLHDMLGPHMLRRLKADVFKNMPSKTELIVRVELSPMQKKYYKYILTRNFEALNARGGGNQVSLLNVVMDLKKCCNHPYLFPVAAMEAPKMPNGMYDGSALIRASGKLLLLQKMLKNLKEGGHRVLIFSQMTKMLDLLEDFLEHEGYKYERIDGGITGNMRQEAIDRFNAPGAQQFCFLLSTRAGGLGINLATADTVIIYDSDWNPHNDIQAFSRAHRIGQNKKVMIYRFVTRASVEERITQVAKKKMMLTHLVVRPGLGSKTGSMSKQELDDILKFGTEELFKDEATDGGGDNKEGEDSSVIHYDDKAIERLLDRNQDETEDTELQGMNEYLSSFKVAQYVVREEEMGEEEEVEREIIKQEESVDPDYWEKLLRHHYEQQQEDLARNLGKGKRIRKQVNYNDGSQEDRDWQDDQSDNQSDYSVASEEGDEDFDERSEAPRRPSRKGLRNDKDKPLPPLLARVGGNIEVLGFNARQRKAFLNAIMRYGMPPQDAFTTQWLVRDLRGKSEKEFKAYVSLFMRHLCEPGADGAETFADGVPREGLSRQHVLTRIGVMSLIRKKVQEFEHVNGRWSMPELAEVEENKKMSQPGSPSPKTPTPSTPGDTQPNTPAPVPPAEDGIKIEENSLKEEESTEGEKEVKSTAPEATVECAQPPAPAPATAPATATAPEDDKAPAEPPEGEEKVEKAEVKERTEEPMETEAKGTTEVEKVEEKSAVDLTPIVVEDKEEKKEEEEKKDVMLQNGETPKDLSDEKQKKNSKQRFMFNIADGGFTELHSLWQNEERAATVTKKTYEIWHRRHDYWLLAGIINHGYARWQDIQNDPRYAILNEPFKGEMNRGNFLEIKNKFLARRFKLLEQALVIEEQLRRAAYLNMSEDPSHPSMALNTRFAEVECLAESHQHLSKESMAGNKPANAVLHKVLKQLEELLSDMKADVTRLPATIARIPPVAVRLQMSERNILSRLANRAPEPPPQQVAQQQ

For five molecules, binding results are on record in paper PMC10501989.

Common to all, as to experiment: co-IP; Th2 cell nuclear lysate (50 mM Tris pH 8.0, 1 mM EDTA, 150 mM NaCl, 1% NP40, 5% glycerol); antibody to the endogenous bait (anti-ADNP, anti-BRG1 or anti-BATF) overnight at 4 °C, protein A/G Dynabeads, immunoblot
For assay [1], the target named is T1, BATF (mouse (endogenous in Th2 cells)) (UniProt O35284).
T1 sequence: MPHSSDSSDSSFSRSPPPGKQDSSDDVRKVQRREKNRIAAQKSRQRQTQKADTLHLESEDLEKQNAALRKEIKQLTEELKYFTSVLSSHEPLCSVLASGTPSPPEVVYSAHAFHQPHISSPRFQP

The target of assay [2] is T2, activity-dependent neuroprotector homeobox protein (ADNP) (mouse (endogenous in Th2 cells)) (UniProt Q9Z103).
T2 sequence: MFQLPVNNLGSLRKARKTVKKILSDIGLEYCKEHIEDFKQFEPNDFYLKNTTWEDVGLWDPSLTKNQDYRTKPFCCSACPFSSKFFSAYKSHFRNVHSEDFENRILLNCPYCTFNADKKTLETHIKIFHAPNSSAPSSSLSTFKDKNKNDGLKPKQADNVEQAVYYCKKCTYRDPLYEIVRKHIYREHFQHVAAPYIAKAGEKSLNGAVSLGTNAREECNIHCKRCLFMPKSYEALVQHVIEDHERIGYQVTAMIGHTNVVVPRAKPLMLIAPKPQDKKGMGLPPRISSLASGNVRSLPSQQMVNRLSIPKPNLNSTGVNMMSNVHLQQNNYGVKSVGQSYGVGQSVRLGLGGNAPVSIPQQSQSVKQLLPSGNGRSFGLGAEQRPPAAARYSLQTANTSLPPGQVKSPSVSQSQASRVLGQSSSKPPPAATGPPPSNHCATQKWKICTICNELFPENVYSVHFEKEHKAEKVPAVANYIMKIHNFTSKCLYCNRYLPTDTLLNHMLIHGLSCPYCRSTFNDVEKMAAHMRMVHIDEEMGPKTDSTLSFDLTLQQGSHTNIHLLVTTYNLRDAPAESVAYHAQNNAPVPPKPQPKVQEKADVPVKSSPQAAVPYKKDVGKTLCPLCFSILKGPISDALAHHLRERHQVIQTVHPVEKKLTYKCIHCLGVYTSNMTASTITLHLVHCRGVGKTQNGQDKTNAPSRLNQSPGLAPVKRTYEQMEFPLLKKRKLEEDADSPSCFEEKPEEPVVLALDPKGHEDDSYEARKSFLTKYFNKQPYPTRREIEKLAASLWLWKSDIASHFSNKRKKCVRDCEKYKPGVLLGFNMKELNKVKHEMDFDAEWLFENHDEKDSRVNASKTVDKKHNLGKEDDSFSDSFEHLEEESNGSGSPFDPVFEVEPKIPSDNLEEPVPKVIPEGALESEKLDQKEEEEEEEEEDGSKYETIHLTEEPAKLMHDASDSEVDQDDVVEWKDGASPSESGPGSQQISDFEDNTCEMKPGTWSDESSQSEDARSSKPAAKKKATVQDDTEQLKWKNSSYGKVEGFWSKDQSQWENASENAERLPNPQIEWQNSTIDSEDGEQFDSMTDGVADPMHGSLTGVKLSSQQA

Assay [3] has as its target Brahma-related gene-1 (BRG1, encoded by Smarca4) (mouse (endogenous in Th2 cells)) (UniProt Q3TKT4).

As for “Brahma-related gene-1 (BRG1, encoded by Smarca4) (from UniProt Q3TKT4 1-1613)”, the binding entry in assay [1] and in assay [2] was “binds” each time.

For the molecule CHD4 (from UniProt Q6PDQ2 1-1915), the binding result in assay [2] is listed as “binds”.

B1: BATF (protein, UniProt O35284 1-125)
chain: MPHSSDSSDSSFSRSPPPGKQDSSDDVRKVQRREKNRIAAQKSRQRQTQKADTLHLESEDLEKQNAALRKEIKQLTEELKYFTSVLSSHEPLCSVLASGTPSPPEVVYSAHAFHQPHISSPRFQP
Regarding B1, the binding result in assay [2] is “binds”.

B2: JUNB (protein, UniProt P09450 1-344)
chain: MCTKMEQPFYHDDSYAAAGYGRSPGSLSLHDYKLLKPTLALNLADPYRGLKGPGARGPGPEGSGAGSYFSGQGSDTGASLKLASTELERLIVPNSNGVITTTPTPPGQYFYPRGGGSGGGTGGGVTEEQEGFADGFVKALDDLHKMNHVTPPNVSLGASGGPQAGPGGVYAGPEPPPVYTNLSSYSPASAPSGGSGTAVGTGSSYPTATISYLPHAPPFAGGHPAQLGLSRGASAFKEEPQTVPEARSRDATPPVSPINMEDQERIKVERKRLRNRLAATKCRKRKLERIARLEDKVKTLKAENAGLSSAAGLLREQVAQLKQKVMTHVSNGCQLLLGVKGHAF
For B2, the binding entry in assay [1] is “binds”.

B3: activity-dependent neuroprotector homeobox protein (ADNP) (protein, UniProt Q9Z103 1-1108)
chain: MFQLPVNNLGSLRKARKTVKKILSDIGLEYCKEHIEDFKQFEPNDFYLKNTTWEDVGLWDPSLTKNQDYRTKPFCCSACPFSSKFFSAYKSHFRNVHSEDFENRILLNCPYCTFNADKKTLETHIKIFHAPNSSAPSSSLSTFKDKNKNDGLKPKQADNVEQAVYYCKKCTYRDPLYEIVRKHIYREHFQHVAAPYIAKAGEKSLNGAVSLGTNAREECNIHCKRCLFMPKSYEALVQHVIEDHERIGYQVTAMIGHTNVVVPRAKPLMLIAPKPQDKKGMGLPPRISSLASGNVRSLPSQQMVNRLSIPKPNLNSTGVNMMSNVHLQQNNYGVKSVGQSYGVGQSVRLGLGGNAPVSIPQQSQSVKQLLPSGNGRSFGLGAEQRPPAAARYSLQTANTSLPPGQVKSPSVSQSQASRVLGQSSSKPPPAATGPPPSNHCATQKWKICTICNELFPENVYSVHFEKEHKAEKVPAVANYIMKIHNFTSKCLYCNRYLPTDTLLNHMLIHGLSCPYCRSTFNDVEKMAAHMRMVHIDEEMGPKTDSTLSFDLTLQQGSHTNIHLLVTTYNLRDAPAESVAYHAQNNAPVPPKPQPKVQEKADVPVKSSPQAAVPYKKDVGKTLCPLCFSILKGPISDALAHHLRERHQVIQTVHPVEKKLTYKCIHCLGVYTSNMTASTITLHLVHCRGVGKTQNGQDKTNAPSRLNQSPGLAPVKRTYEQMEFPLLKKRKLEEDADSPSCFEEKPEEPVVLALDPKGHEDDSYEARKSFLTKYFNKQPYPTRREIEKLAASLWLWKSDIASHFSNKRKKCVRDCEKYKPGVLLGFNMKELNKVKHEMDFDAEWLFENHDEKDSRVNASKTVDKKHNLGKEDDSFSDSFEHLEEESNGSGSPFDPVFEVEPKIPSDNLEEPVPKVIPEGALESEKLDQKEEEEEEEEEDGSKYETIHLTEEPAKLMHDASDSEVDQDDVVEWKDGASPSESGPGSQQISDFEDNTCEMKPGTWSDESSQSEDARSSKPAAKKKATVQDDTEQLKWKNSSYGKVEGFWSKDQSQWENASENAERLPNPQIEWQNSTIDSEDGEQFDSMTDGVADPMHGSLTGVKLSSQQA
Consider B3, for which the binding result in assay [3] and in assay [1] was “binds” in each case.
